Measurements published in article PMC8598058.
Like-named read-outs stand apart in the source and are kept apart here. No constants are given. Whether binding was seen depends on the method and setting. Binding seen in cells or lysates may run through a third protein. Here binding means that the protein was enriched with, or labelled near, the bait; the list need not be complete. For part of these data: No binding means not detected with the bait. For part of these data: Sequences can lack the tags named with a protein.

Sequences of proteins named here, by UniProt entry; tags and fusion partners are left off.
UniProt Q13547: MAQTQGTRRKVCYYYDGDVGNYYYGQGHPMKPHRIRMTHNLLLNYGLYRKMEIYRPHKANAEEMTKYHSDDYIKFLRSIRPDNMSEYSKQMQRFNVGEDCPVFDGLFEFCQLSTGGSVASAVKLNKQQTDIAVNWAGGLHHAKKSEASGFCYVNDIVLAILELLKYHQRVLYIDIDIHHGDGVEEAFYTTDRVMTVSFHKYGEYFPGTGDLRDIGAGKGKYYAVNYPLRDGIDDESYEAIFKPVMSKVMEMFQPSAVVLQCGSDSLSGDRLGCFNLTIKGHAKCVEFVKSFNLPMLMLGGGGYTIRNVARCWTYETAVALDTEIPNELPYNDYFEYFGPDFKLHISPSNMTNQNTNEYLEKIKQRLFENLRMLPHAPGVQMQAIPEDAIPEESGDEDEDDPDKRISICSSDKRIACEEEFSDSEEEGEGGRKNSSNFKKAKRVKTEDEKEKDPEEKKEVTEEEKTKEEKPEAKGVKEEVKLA
UniProt P42771: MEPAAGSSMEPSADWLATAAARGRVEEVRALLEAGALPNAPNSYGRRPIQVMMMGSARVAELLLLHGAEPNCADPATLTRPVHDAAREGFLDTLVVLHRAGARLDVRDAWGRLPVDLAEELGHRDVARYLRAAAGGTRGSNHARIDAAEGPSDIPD

B1: SUDS3 (protein, UniProt Q9H7L9 1-328)
chain: MSAAGLLAPAPAQAGAPPAPEYYPEEDEELESAEDDERSCRGRESDEDTEDASETDLAKHDEEDYVEMKEQMYQDKLASLKRQLQQLQEGTLQEYQKRMKKLDQQYKERIRNAELFLQLETEQVERNYIKEKKAAVKEFEDKKVELKENLIAELEEKKKMIENEKLTMELTGDSMEVKPIMTRKLRRRPNDPVPIPDKRRKPAPAQLNYLLTDEQIMEDLRTLNKLKSPKRPASPSSPEHLPATPAESPAQRFEARIEDGKLYYDKRWYHKSQAIYLESKDNQKLSCVISSVGANEIWVRKTSDSTKMRIYLGQLQRGLFVIRRRSAA
B2: TRMT2A (TRNA Methyltransferase 2 Homolog A) (protein, UniProt Q8IZ69 1-625)
chain: MSENLDNEGPKPMESCGQESSSALSCPTVSVPPAAPAALEEVEKEGAGAATGPGPQPGLYSYIRDDLFTSEIFKLELQNVPRHASFSDVRRFLGRFGLQPHKTKLFGQPPCAFVTFRSAAERDKALRVLHGALWKGRPLSVRLARPKADPMARRRRQEGESEPPVTRVADVVTPLWTVPYAEQLERKQLECEQVLQKLAKEIGSTNRALLPWLLEQRHKHNKACCPLEGVRPSPQQTEYRNKCEFLVGVGVDGEDNTVGCRLGKYKGGTCAVAAPFDTVHIPEATKQVVKAFQEFIRSTPYSAYDPETYTGHWKQLTVRTSRRHQAMAIAYFHPQKLSPEELAELKTSLAQHFTAGPGRASGVTCLYFVEEGQRKTPSQEGLPLEHVAGDRCIHEDLLGLTFRISPHAFFQVNTPAAEVLYTVIQDWAQLDAGSMVLDVCCGTGTIGLALARKVKRVIGVELCPEAVEDARVNAQDNELSNVEFHCGRAEDLVPTLVSRLASQHLVAILDPPRAGLHSKVILAIRRAKNLRRLLYVSCNPRAAMGNFVDLCRAPSNRVKGIPFRPVKAVAVDLFPQTPHCEMLILFERVEHPNGTGVLGPHSPPAQPTPGPPDNTLQETGTFPSS
B3: DNA Polymerase Epsilon Subunit 2 (POLE2) (protein, UniProt P56282 1-527)
chain: MAPERLRSRALSAFKLRGLLLRGEAIKYLTEALQSISELELEDKLEKIINAVEKQPLSSNMIERSVVEAAVQECSQSVDETIEHVFNIIGAFDIPRFVYNSERKKFLPLLMTNHPAPNLFGTPRDKAEMFRERYTILHQRTHRHELFTPPVIGSHPDESGSKFQLKTIETLLGSTTKIGDAIVLGMITQLKEGKFFLEDPTGTVQLDLSKAQFHSGLYTEACFVLAEGWFEDQVFHVNAFGFPPTEPSSTTRAYYGNINFFGGPSNTSVKTSAKLKQLEEENKDAMFVFLSDVWLDQVEVLEKLRIMFAGYSPAPPTCFILCGNFSSAPYGKNQVQALKDSLKTLADIICEYPDIHQSSRFVFVPGPEDPGFGSILPRPPLAESITNEFRQRVPFSVFTTNPCRIQYCTQEITVFREDLVNKMCRNCVRFPSSNLAIPNHFVKTILSQGHLTPLPLYVCPVYWAYDYALRVYPVPDLLVIADKYDPFTTTNTECLCINPGSFPRSGFSFKVFYPSNKTVEDSKLQGF
B4: SIN3B (protein, UniProt O75182 1-1162)
chain: MAHAGGGSGGSGAGGPAGRGLSGARWGRSGSAGHEKLPVHVEDALTYLDQVKIRFGSDPATYNGFLEIMKEFKSQSIDTPGVIRRVSQLFHEHPDLIVGFNAFLPLGYRIDIPKNGKLNIQSPLTSQENSHNHGDGAEDFKQQVPYKEDKPQVPLESDSVEFNNAISYVNKIKTRFLDHPEIYRSFLEILHTYQKEQLNTRGRPFRGMSEEEVFTEVANLFRGQEDLLSEFGQFLPEAKRSLFTGNGPCEMHSVQKNEHDKTPEHSRKRSRPSLLRPVSAPAKKKMKLRGTKDLSIAAVGKYGTLQEFSFFDKVRRVLKSQEVYENFLRCIALFNQELVSGSELLQLVSPFLGKFPELFAQFKSFLGVKELSFAPPMSDRSGDGISREIDYASCKRIGSSYRALPKTYQQPKCSGRTAICKELDHWTLLQGSWTDDYCMSKFKNTCWIPGYSAGVLNDTWVSFPSWSEDSTFVSSKKTPYEEQLHRCEDERFELDVVLETNLATIRVLESVQKKLSRMAPEDQEKFRLDDSLGGTSEVIQRRAIYRIYGDKAPEIIESLKKNPVTAVPVVLKRLKAKEEEWREAQQGFNKIWREQYEKAYLKSLDHQAVNFKQNDTKALRSKSLLNEIESVYDEHQEQHSEGRSAPSSEPHLIFVYEDRQILEDAAALISYYVKRQPAIQKEDQGTIHQLLHQFVPSLFFSQQLDLGASEESADEDRDSPQGQTTDPSERKKPAPGPHSSPPEEKGAFGDAPATEQPPLPPPAPHKPLDDVYSLFFANNNWYFFLRLHQTLCSRLLKIYRQAQKQLLEYRTEKEREKLLCEGRREKGSDPAMELRLKQPSEVELEEYYPAFLDMVRSLLEGSIDPTQYEDTLREMFTIHAYVGFTMDKLVQNIARQLHHLVSDDVCLKVVELYLNEKKRGAAGGNLSSRCVRAARETSYQWKAERCMADENCFKVMFLQRKGQVIMTIELLDTEEAQTEDPVEVQHLARYVEQYVGTEGASSSPTEGFLLKPVFLQRNLKKFRRRWQSEQARALRGEARSSWKRLVGVESACDVDCRFKLSTHKMVFIVNSEDYMYRRGTLCRAKQVQPLVLLRHHQHFEEWHSRWLEDNVTVEAASLVQDWLMGEEDEDMVPCKTLCETVHVHGLPVTRYRVQYSRRPASP
B5: SAP30 (protein, UniProt O75446 1-220)
chain: MNGFTPDEMSRGGDAAAAVAAVVAAAAAAASAGNGTGAGTGAEVPGAGAVSAAGPPGAAGPGPGQLCCLREDGERCGRAAGNASFSKRIQKSISQKKVKIELDKSARHLYICDYHKNLIQSVRNRRKRKGSDDDGGDSPVQDIDTPEVDLYQLQVNTLRRYKRHFKLPTRPGLNKAQLVEIVGCHFRSIPVNEKDTLTYFIYSVKNDKNKSDLKVDSGVH
B6: BRMS1L (protein, UniProt Q5PSV4 1-323)
chain: MPVHSRGDKKETNHHDEMEVDYAENEGSSSEDEDTESSSVSEDGDSSEMDDEDCERRRMECLDEMSNLEKQFTDLKDQLYKERLSQVDAKLQEVIAGKAPEYLEPLATLQENMQIRTKVAGIYRELCLESVKNKYECEIQASRQHCESEKLLLYDTVQSELEEKIRRLEEDRHSIDITSELWNDELQSRKKRKDPFSPDKKKPVVVSGPYIVYMLQDLDILEDWTTIRKAMATLGPHRVKTEPPVKLEKHLHSARSEEGRLYYDGEWYIRGQTICIDKKDECPTSAVITTINHDEVWFKRPDGSKSKLYISQLQKGKYSIKHS

Tests used:
Halo-tagged BRMS1^S237D [1] = molecular target: T1, Halo-tagged BRMS1^S237D; assay: affinity purification with mass spectrometry; Halo-BRMS1 constructs transfected in HEK293T; lysate (50 mM Tris-HCl pH 7.5, 150 mM NaCl, 1% Triton X-100, 0.1% sodium deoxycholate) incubated overnight at 4°C with Magne HaloTag beads; TEV elution; MudPIT; Halo tag alone as negative control; three replicates a bait; QSPEC and TopS scoring
T1 sequence: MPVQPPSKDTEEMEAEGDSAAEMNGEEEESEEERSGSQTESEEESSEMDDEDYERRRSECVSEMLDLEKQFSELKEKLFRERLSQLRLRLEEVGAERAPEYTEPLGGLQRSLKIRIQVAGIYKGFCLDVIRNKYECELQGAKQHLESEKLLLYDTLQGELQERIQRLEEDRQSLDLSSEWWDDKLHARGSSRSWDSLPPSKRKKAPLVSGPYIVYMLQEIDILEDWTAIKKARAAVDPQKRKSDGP

[2] = molecular target: T2, Halo-tagged BRMS1 wild-type (BRMS1^WT), Breast Cancer Metastasis Suppressor 1; assay: as above
T2 sequence: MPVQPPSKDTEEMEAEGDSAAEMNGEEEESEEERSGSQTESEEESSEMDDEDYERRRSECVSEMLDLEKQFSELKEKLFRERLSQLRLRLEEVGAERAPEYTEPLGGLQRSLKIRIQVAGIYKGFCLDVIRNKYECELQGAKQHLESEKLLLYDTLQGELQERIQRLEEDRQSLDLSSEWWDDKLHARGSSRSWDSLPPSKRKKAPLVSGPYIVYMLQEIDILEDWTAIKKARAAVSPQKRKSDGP

Halo-tagged BRMS1^S237D [3] = molecular target: T1, Halo-tagged BRMS1^S237D; assay: as above; remark: listed apart in the source
[4] = molecular target: T2, Halo-tagged BRMS1 wild-type (BRMS1^WT), Breast Cancer Metastasis Suppressor 1; assay: as above; remark: listed apart in the source
[5] = molecular target: T3, SIN3A (human (endogenous in HEK293T, MCF-10A and MDA-MB-231)) (UniProt Q96ST3); assay: condition: only in nuclear lysate of MDA-MB-231 cells; affinity purification with mass spectrometry; co-IP of endogenous SIN3A with a polyclonal antibody from nuclear lysate of MDA-MB-231 cells; gel, in-gel digestion, MALDI-TOF
T3 sequence: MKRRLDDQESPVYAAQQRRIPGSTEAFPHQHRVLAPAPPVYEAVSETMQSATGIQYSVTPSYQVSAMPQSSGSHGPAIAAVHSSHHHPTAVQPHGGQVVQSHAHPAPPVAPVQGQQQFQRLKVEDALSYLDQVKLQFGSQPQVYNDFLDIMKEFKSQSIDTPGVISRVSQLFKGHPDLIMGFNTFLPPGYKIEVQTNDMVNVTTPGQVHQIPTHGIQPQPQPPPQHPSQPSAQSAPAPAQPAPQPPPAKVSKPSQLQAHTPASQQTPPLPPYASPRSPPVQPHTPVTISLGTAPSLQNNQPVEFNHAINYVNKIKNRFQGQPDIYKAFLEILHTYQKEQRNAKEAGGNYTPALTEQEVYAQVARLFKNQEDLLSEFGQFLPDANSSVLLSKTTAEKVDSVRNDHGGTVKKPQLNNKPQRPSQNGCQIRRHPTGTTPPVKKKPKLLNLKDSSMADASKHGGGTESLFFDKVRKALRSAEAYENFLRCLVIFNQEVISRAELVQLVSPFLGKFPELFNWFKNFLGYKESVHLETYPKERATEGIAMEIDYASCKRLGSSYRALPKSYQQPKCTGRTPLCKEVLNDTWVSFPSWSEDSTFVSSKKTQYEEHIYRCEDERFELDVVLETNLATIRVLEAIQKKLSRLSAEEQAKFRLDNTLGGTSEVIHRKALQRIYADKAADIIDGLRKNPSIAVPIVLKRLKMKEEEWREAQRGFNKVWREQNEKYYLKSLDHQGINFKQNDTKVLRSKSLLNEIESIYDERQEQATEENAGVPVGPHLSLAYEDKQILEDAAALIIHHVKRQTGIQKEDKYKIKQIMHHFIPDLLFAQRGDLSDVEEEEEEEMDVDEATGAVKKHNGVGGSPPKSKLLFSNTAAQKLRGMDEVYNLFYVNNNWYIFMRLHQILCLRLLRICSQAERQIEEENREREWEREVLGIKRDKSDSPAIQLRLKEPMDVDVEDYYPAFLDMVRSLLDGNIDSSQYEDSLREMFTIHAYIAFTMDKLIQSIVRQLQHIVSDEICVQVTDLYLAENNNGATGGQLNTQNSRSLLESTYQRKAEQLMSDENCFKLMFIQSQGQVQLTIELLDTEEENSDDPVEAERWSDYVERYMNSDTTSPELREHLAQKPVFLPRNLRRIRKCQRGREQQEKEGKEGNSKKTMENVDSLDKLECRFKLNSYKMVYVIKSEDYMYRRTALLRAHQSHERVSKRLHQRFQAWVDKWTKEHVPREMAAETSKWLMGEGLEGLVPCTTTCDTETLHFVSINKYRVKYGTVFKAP

[6] = molecular target: T3, SIN3A (human (endogenous in HEK293T, MCF-10A and MDA-MB-231)); assay: affinity purification with mass spectrometry; co-IP of endogenous SIN3A with a polyclonal antibody from nuclear lysate of MCF-10A cells; gel, in-gel digestion, MALDI-TOF

| Molecule | binding [5] | binding [6] | other results |
| --- | --- | --- | --- |
| HDAC1 (from UniProt Q13547 1-482) | – | – | binding (Halo-tagged BRMS1^S237D [1]): binds; binding [2]: binds |
| Cyclin Dependent Kinase Inhibitor 2A (CDKN2A) (from UniProt P42771 1-156) | – | – | binding [2]: binds |
| B1 | – | – | binding (Halo-tagged BRMS1^S237D [3]): binds |
| B2 | – | – | binding [4]: binds |
| B3 | – | – | binding [4]: binds |
| B4 | no binding | binds | – |
| B5 | no binding | binds | – |
| B6 | no binding | binds | – |
